From paper PMC8551653, “Bisphenol A derivatives act as novel coactivator-binding inhibitors for estrogen receptor β” (The Journal of Biological Chemistry, 2021)
No constants are given. Whether binding was seen depends on the method and setting. Some binding calls cover weakened binding; strength is not graded here.

Amino acid sequences for entries named in this document (tags omitted). A change or cut given only in a name is not applied to a line headed by its entry. Chains listed by the source or under a name are the forms on record and can include a tag or linker.
GST-ERβ(W335A)-LBD (Q92731, form named): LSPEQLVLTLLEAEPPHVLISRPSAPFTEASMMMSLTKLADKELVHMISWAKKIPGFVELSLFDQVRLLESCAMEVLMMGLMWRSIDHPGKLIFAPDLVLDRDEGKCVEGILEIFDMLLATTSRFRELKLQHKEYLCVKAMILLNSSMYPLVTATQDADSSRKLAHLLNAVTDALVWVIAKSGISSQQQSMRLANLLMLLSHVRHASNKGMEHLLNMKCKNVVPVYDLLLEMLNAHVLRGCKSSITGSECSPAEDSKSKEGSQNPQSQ

Biological target: GST-ERβ(W335A)-LBD (human) (UniProt Q92731)
Experiment: SPR; Biacore T100; SRC1 peptide on ERβ(W335A); ligand condition not told in the text (Fig. S5); both purified

B1: SRC1 peptide (amino acids 685–697) derived from human nuclear receptor coactivator 1 (peptide)
peptide: ERHKILHRLLQEG
notes: source: synthetic peptide (ABI 433A, solid phase, Fmoc chemistry)
binding: binds weakly
